According to paper PMC6914800:
These are yes or no findings as the source states them, for the method shown. Binding seen in cells or lysates may run through a third protein. A yes stands for co-enrichment or nearness to the bait. Other partners may have been found.

Molecular target: T1, Paraspeckle component 1 (PSPC1), endogenous (human (endogenous in Huh-7)) (UniProt Q8WXF1)
T1 sequence: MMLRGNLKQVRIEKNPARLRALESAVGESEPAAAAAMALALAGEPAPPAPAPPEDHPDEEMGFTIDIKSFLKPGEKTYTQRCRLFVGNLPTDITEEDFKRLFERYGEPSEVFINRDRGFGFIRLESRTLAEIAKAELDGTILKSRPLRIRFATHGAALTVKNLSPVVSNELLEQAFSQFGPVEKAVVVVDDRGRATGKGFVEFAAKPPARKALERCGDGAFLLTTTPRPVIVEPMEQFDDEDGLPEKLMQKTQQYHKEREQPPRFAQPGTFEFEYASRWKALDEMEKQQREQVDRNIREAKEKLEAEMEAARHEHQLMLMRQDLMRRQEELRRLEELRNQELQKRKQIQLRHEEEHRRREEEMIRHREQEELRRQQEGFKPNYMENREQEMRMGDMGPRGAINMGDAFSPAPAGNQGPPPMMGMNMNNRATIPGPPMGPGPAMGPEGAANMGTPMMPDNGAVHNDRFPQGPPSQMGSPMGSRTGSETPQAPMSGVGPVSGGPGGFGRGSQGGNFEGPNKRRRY
Assay: affinity purification with mass spectrometry; PSPC1 IP with Huh-7 cell lysate; co-precipitated proteins separated by SDS-PAGE, Coomassie-stained bands digested with trypsin, LC-MS/MS

binding: binds
Substance: Protein tyrosine kinase 6 (PTK6), endogenous (from UniProt Q13882 1-451) (enzyme)
